Among the data in PubChem BioAssay AID248 (DTP/NCI, 2004) are T/C and survivor count values, retold here.

The experiment has as its system L1210 leukemia ip in BDF1 mice, survival T/C. The experiment is described as follows: NCI In Vivo Anticancer Drug Screen. Data for tumor model L1210 Leukemia (intraperitoneal) in B6D2F1 (BDF1) mice. The settings on record: T/C endpoint: mean survival time, higher T/C = longer survival.

The list shows only some results of the screen, not a fair sample: it gathers tests that were run many times, whatever their T/C, doses with no T/C, and many T/C values between a quarter and a half above the control. Further doses and runs are listed elsewhere. T/C gives the treated animals as a percentage of the vehicle group. Some doses have a count of surviving animals in place of a T/C: the source holds a T/C of zero for them, seemingly a mark for toxic or unscored doses. Some survivor counts are full or nearly so, which does not show that the dose was tolerated: survival well below the control is almost never listed, so the zero probably covers shortened survival too. Counts of survivors are from the toxicity check (mostly the fifth day) where no day follows; animals may have died later. Schedules are NCI's codes, read here as Q, the interval in days (D) or hours (H), X, the number of doses. Some entries were tested several times; the results are listed from low to high. Where survival is the endpoint, the PubChem record calls one and a half times the control and up active, and a quarter to a half above the control has no call in these data; cut-offs in other NCI protocols can differ. Brackets with × stand for listed records that agree.

Regarding `CN(C)c1nc(N(C)C)nc(N(C)C)n1`, the T/C is, setting by setting: (dose: 22.0 mg/kg/injection, schedule: Q01DX009 (ip), vehicle: saline with Tween-80) 97, 100, 104, 110 % of control; (dose: 43.0 mg/kg/injection, schedule: Q01DX009 (ip), vehicle: saline with Tween-80) 101 (2×), 107, 116 % of control; (dose: 86.0 mg/kg/injection, schedule: Q01DX009 (ip), vehicle: saline with Tween-80) 95, 101, 121, 125 % of control; (dose: 172.0 mg/kg/injection, schedule: Q01DX009 (ip), vehicle: saline with Tween-80) 104, 111, 116, 125 % of control. For the same compound, the survivor count is on record as 6 of 6 (dose: 45.0 mg/kg/injection, schedule: Q03HX040 (ip), vehicle: saline); 6 of 6 (dose: 60.0 mg/kg/injection, schedule: Q06HX020 (ip), vehicle: saline); 2 of 6 (dose: 67.5 mg/kg/injection, schedule: Q03HX040 (ip), vehicle: saline); 6 of 6 (dose: 90.0 mg/kg/injection, schedule: Q06HX020 (ip), vehicle: saline); 0 of 6 (dose: 135.0 mg/kg/injection, schedule: Q03HX040 (ip), vehicle: saline); 1 of 6 (dose: 135.0 mg/kg/injection, schedule: Q06HX020 (ip), vehicle: saline). The survivor count is, setting by setting: (dose: 160.0 mg/kg/injection, schedule: Q01DX005 (ip), vehicle: acetone) 4 of 7 and 7 of 7; (dose: 200.0 mg/kg/injection, schedule: Q12HX010 (ip), vehicle: saline) 6 of 6; (dose: 270.0 mg/kg/injection, schedule: Q06HX020 (ip), vehicle: saline) 0 of 6; (dose: 320.0 mg/kg/injection, schedule: Q01DX009 (ip), vehicle: Klucel (hydroxypropylcellulose) (HPC)) 5 of 6; (dose: 400.0 mg/kg/injection, schedule: Q01DX009 (ip), vehicle: saline with Tween-80) 6 of 10; (dose: 400.0 mg/kg/injection, schedule: Q12HX010 (ip), vehicle: saline) 0 of 6. Further, the survivor count was 0 of 6 (dose: 800.0 mg/kg/injection, schedule: Q12HX010 (ip), vehicle: saline) and 2 of 6 (dose: 1000.0 mg/kg/injection, schedule: Q01DX001 (ip), vehicle: other).
